Results published in KR20220022226A.
Results are given in words; binding and its absence hold for the method and conditions named. Some binding calls cover weakened binding; strength is not graded here.

Target: T1, IL-33 (human) (UniProt O95760)
T1 sequence: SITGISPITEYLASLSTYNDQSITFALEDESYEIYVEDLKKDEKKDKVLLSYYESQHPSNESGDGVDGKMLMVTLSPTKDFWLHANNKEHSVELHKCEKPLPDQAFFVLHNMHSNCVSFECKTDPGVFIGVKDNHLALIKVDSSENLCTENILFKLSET
Assay: immunoblot, C2_2E12 as primary antibody, anti-HA-HRP as secondary

B1: C2_2E12 (scFv)
scFv: EVQLLESGGGLVQPGGSLRLSCAASGFTFSSYYMSWVRQAPGKGLEWVSAISPGSSNKYYADSVKGRFTISRDNSKNTLYLQMNSLRAEDTAVYYCARLTLSFDYWGQGTPVTVSSGGGGSGGGGSGGGGSQSVLTQPPSASGTPGQRVTISCSGSSSNIGSNDVSWYQQLPGTAPKLLIYADSKRPSGVPDRFSGSKSGTSASLAISGLRSEDEADYYCASWDSSLSAYVFGGGTKLTVLG
Question: How did the binding turn out when B1 was run?
Answer: Its binding is “binds”.
